The record followed here is article PMC2946365.

Holding throughout (assay): pull-down; GST pull-down of His-SUMO with GST fusions (input, unbound, bound); methods in File S1
Assay [1] concerns the target T1, GST-Rad60-SLD2 (S. pombe) (UniProt Q9USX3).
T1 sequence: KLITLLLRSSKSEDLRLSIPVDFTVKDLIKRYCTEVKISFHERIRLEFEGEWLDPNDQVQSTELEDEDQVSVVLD

For assay [2], the target named is T2, GST-Hus5 (S. pombe) (UniProt P40984).
T2 sequence: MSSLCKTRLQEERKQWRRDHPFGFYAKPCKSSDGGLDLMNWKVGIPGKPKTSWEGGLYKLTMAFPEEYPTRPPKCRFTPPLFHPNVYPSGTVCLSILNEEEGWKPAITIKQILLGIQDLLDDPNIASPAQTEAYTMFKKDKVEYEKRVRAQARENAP

Assay [3] deals with T3, GST-Rad60 (full length Rad60) (S. pombe) (UniProt Q9USX3).
T3 sequence: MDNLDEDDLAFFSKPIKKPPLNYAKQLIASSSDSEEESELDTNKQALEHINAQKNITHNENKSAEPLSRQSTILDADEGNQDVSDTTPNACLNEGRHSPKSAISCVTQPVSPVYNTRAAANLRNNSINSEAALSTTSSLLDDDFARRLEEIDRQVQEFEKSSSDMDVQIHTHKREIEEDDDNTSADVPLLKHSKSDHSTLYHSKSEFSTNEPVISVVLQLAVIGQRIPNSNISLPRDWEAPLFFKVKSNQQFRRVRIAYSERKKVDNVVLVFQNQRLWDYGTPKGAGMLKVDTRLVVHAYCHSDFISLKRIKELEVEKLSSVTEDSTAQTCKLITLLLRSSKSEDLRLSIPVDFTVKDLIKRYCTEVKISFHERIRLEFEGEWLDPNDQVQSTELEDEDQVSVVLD

These are yes or no findings as the source states them, for the method shown. Binding seen in cells or lysates may run through a third protein. Some binding calls cover weakened binding; strength is not graded here. Sequences can lack the tags named with a protein.

B1: His-SUMO (protein, UniProt O13351 1-111)
chain: MSESPSANISDADKSAITPTTGDTSQQDVKPSTEHINLKVVGQDNNEVFFKIKKTTEFSKLMKIYCARQGKSMNSLRFLVDGERIRPDQTPAELDMEDGDQIEAVLEQLGG
On to B1, for which the binding result is “no binding” in assay [1], “binds” in assay [2] and “no binding” in assay [3].
